The supplement of paper PMC3682954
Counter-ions that a name gives are not always drawn. ± gives the standard deviation of the averaged measurements. The list shows a part of the results. Single values are uncertain, as repeats are few or missing.

System: RAW 264.7
Assay: cell viability (MTT) relative to vehicle control; higher = more viable cells
Settings: stimulus: HMGB1 5 ug/ml, 18 h
[1] = compound concentration: 1 ug/ml

SMILES | cell viability [1] [%] | cell viability (compound concentration: 3 uM) [%]
CN1CCC[C@H]1c1cccnc1 [Nicotine] | 98.8 | 
CN1CCC[C@H]1c1cccnc1 [(-)-Nicotine hydrogen tartrate salt] |  | 119
CN1CCC[C@H]1c1cccnc1 |  | 101
COc1cc(CC(=O)O)ccc1O [4-Hydroxy-3-methoxyphenylacetic acid] |  | 106
C=CC[N@@+]12CC[C@@]34c5ccccc5N5/C=C6/[C@H]7C[C@H]8[C@@]9(CC[N@@+]8(CC=C)C/C7=C/CO)c7ccccc7N(/C=C(/[C@@H](C[C@@H]31)/C(=C\CO)C2)[C@H]54)[C@@H]69 [Alcuronium chloride] |  | 89.8
CC(C)=CCC/C(C)=C/COc1ccc2ccc(=O)oc2c1 |  | 137
CO/N=C1\CN(c2nc3c(cc2F)c(=O)c(C(=O)O)cn3C2CC2)CC1CN (stereo not given) |  | 111
NC(=O)NO |  | 102.86 ± 0.064
NC(=O)NO [Hydroxyurea] |  | 109
Clc1ccccc1C(c1ccccc1)(c1ccccc1)n1ccnc1 [Clotrimazole] |  | 84.4 ± 7.1
Clc1ccccc1C(c1ccccc1)(c1ccccc1)n1ccnc1 |  | 98.08 ± 0.62
CCNc1nc2c(ncn2[C@H]2C[C@H](O)[C@@H](CO)O2)c(=O)[nH]1 [N2-Ethyl-2'-deoxyguanosine] |  | 140
Clc1ccc(COC(Cn2ccnc2)c2ccc(Cl)cc2Cl)cc1 (stereo not given) |  | 105
Clc1ccc(COC(Cn2ccnc2)c2ccc(Cl)cc2Cl)cc1 (stereo not given) [Econazole nitrate] |  | 104
COc1ccccc1CNCCCCCCNCCCCCCCCNCCCCCCNCc1ccccc1OC [Methoctramine tetrahydrochloride] |  | 119
O=C(O)CNC(=O)C(CS)Cc1ccccc1 (stereo not given) [Thiorphan] |  | 115
Cc1onc(-c2ccccc2)c1C(=O)N[C@@H]1C(=O)N2[C@@H]1SC(C)(C)[C@@H]2C(=O)O |  | 107
Cc1onc(-c2ccccc2)c1C(=O)N[C@@H]1C(=O)N2[C@@H]1SC(C)(C)[C@@H]2C(=O)O [Oxacillin] |  | 86.8
CCCC(CCC)C(=O)O |  | 106
CCCC(CCC)C(=O)O [Valproic acid] |  | 107.7 ± 0.99
CCCC(CCC)C(=O)O [Valproic acid sodium] |  | 97.5
Nn1nnc2ccccc21 [1-Aminobenzotriazole] |  | 101
CN(C)CCCC1(c2ccc(F)cc2)OCc2cc(C#N)ccc21 (stereo not given) [Citalopram Hydrobromide] |  | 113
CN(C)CCCC1(c2ccc(F)cc2)OCc2cc(C#N)ccc21 (stereo not given) [Citalopram hydrobromide] |  | 103 ± 7.5

SMILES | cell viability [1] [%] | cell viability (compound concentration: 3 uM) [%]
CN(C)CCCC1(c2ccc(F)cc2)OCc2cc(C#N)ccc21 (stereo not given) [Citalopram] |  | 91.3
CN(C)CCCC1(c2ccc(F)cc2)OCc2cc(C#N)ccc21 (stereo not given) |  | 114
N[C@H](Cc1ccc2ccccc2c1)C(=O)O [3-(2-Naphthyl)-D-alanine] | 103 | 
C[C@H](O)C(=O)C1=Nc2c(nc(N)[nH]c2=O)NC1 [Sepiapterin] |  | 114
COc1cc(N)c(Cl)cc1C(=O)NC1CCN(CCCOc2ccc(F)cc2)CC1OC (stereo not given) [Cisapride] |  | 111 ± 19
CN(C)CCC(c1ccc(Cl)cc1)c1ccccn1 (stereo not given) [Chlorpheniramine maleate] |  | 95.4
CN(C)CCC(c1ccc(Cl)cc1)c1ccccn1 (stereo not given) [Chlorpheniramine] |  | 96.4 ± 1.7
OCC(O)CN1CCN(c2ccccc2)CC1 (stereo not given) |  | 104
COc1ccccc1N1CCN(CCN2C(=O)CC3(CCCC3)CC2=O)CC1 [BMY 7378 dihydrochloride] |  | 85.3
CN1Cc2sccc2C(c2ccc(O)c(O)c2)C1 (stereo not given) |  | 109
COc1ccc(-c2coc3cc(O)cc(O)c3c2=O)cc1 [Biochanin A] | 84.8 | 
COC1=CC(=O)C[C@@H](C)[C@]12Oc1c(Cl)c(OC)cc(OC)c1C2=O [Griseofulvin] | 83.2 | 100
COC1=CC(=O)C[C@@H](C)[C@]12Oc1c(Cl)c(OC)cc(OC)c1C2=O |  | 121 ± 15
CC(C)(C)c1cc(/C=C(\C#N)C(N)=S)cc(C(C)(C)C)c1O [Tyrphostin AG 879] |  | 65.5
CC(=O)O[C@H]1Cc2ccccc2N(C(N)=O)c2ccccc21 |  | 122
CCOC(=O)c1ccc(O)cc1 |  | 103
COC(=O)Nc1nc2cc(C(=O)c3ccc(F)cc3)ccc2[nH]1 [Flubendazol] |  | 84.2
COC(=O)Nc1nc2cc(C(=O)c3ccc(F)cc3)ccc2[nH]1 [Flubendazole] |  | 86.2
COC(=O)Nc1nc2cc(C(=O)c3ccc(F)cc3)ccc2[nH]1 |  | 76.7
COc1ccc2cc1Oc1ccc(cc1)C[C@H]1c3c(cc4c(c3Oc3cc5c(cc3OC)CCN(C)[C@@H]5C2)OCO4)CCN1C |  | 107
CC(C)(C)NC(=O)[C@@H]1CN(Cc2cccnc2)CCN1C[C@@H](O)C[C@@H](Cc1ccccc1)C(=O)N[C@H]1c2ccccc2C[C@H]1O |  | 95.5
O=C(O)c1ccccc1Nc1cccc(OCc2ccc3ccccc3n2)c1 |  | 116
O=C(O[C@@H]1C[C@@H]2C[C@H]3C[C@H](C1)N2CC3=O)c1c[nH]c2ccccc12 |  | 100
O=C(O[C@@H]1C[C@@H]2C[C@H]3C[C@H](C1)N2CC3=O)c1c[nH]c2ccccc12 [Dolasetron] |  | 114

SMILES | cell viability [1] [%] | cell viability (compound concentration: 3 uM) [%]
CC(C)(C)NCC(O)c1ccc(O)c(CO)c1 (stereo not given) [Albuterol hemisulfate] |  | 116
CC(C)(C)NCC(O)c1ccc(O)c(CO)c1 (stereo not given) |  | 91.2
CC(C)(C)NCC(O)c1ccc(O)c(CO)c1 (stereo not given) [Salbutamol] |  | 98.7 ± 4.7
CCCCCCCC/C=C\CCCCCCCC(=O)O [Oleic Acid] |  | 104
Cn1c(=O)c2c(ncn2C)n(C)c1=O [Caffeine] | 92.8 | 108 ± 12
Cn1c(=O)c2c(ncn2C)n(C)c1=O |  | 104
[N-]=[N+]=Nc1ccc(C(=O)CSC[C@H](NC(=O)CC[C@H](N)C(=O)O)C(=O)NCC(=O)O)cc1 [S-(p-Azidophenacyl)glutathione] |  | 77.2
Cc1c(OCC(F)(F)F)ccnc1C[S+]([O-])c1nc2ccccc2[nH]1 (stereo not given) [Lansoprazole] |  | 99 ± 3.3
Cc1c(OCC(F)(F)F)ccnc1C[S+]([O-])c1nc2ccccc2[nH]1 (stereo not given) |  | 103 ± 7
CCN1CCCC1CNC(=O)c1cc(S(=O)(=O)CC)c(N)cc1OC (stereo not given) [Amisulpride] |  | 108 ± 9.5
Nc1nc(N)nc(-c2cc(Cl)ccc2Cl)n1 |  | 92.9
Nc1nc(N)nc(-c2cc(Cl)ccc2Cl)n1 [Irsogladine Maleate] |  | 106
Nc1nc(N)nc(-c2cc(Cl)ccc2Cl)n1 [Irsogladine] |  | 101
COc1cc(N)c(Cl)cc1C(=O)NC1CCN(Cc2ccccc2)CC1 |  | 114
COc1cc(N)c(Cl)cc1C(=O)NC1CCN(Cc2ccccc2)CC1 [Clebopride maleate] |  | 96.8
S=P(N1CC1)(N1CC1)N1CC1 |  | 108 ± 14
CCc1c(C(=O)NCCc2ccc(N3CCCCC3)cc2)[nH]c2ccc(Cl)cc12 |  | 102
COc1cc2oc(=O)cc(C)c2cc1OC [6,7-Dimethoxy-4-methylcoumarin] | 96.6 | 
COc1ccccc1OCCNCC(O)COc1cccc2[nH]c3ccccc3c12 (stereo not given) |  | 98.2
COc1ccccc1OCCNCC(O)COc1cccc2[nH]c3ccccc3c12 (stereo not given) [Carvedilol] |  | 102 ± 8.6
CCCOC(=O)c1c(-c2ccccc2)nc(CC)c(C(=O)SCC)c1CCC |  | 103
CC(C)c1nc(CN(C)C(=O)N[C@H](C(=O)N[C@@H](Cc2ccccc2)C[C@H](O)[C@H](Cc2ccccc2)NC(=O)OCc2cncs2)C(C)C)cs1 |  | 98.4
COc1ccc(CCCOC(Cn2ccnc2)c2ccc(OC)cc2)cc1 (stereo not given) |  | 108
CC(=O)Oc1cccc(C(=O)O)c1OC(C)=O |  | 112

Four records drawn at random from those above:
SMILES | cell viability [1] [%] | cell viability (compound concentration: 3 uM) [%]
Nc1nc(N)nc(-c2cc(Cl)ccc2Cl)n1 |  | 92.9
[N-]=[N+]=Nc1ccc(C(=O)CSC[C@H](NC(=O)CC[C@H](N)C(=O)O)C(=O)NCC(=O)O)cc1 [S-(p-Azidophenacyl)glutathione] |  | 77.2
COc1ccccc1OCCNCC(O)COc1cccc2[nH]c3ccccc3c12 (stereo not given) [Carvedilol] |  | 102 ± 8.6
CCCOC(=O)c1c(-c2ccccc2)nc(CC)c(C(=O)SCC)c1CCC |  | 103

The listing continues.

SMILES | cell viability [1] [%] | cell viability (compound concentration: 3 uM) [%]
COc1c(O)cc2c(c1O)[C@@H]1O[C@H](CO)[C@@H](O)[C@H](O)[C@H]1OC2=O |  | 113
CC(C)[C@H]1CC[C@H](C(=O)N[C@H](Cc2ccccc2)C(=O)O)CC1 [Nateglinide] |  | 116
CC(C)[C@H]1CC[C@H](C(=O)N[C@H](Cc2ccccc2)C(=O)O)CC1 |  | 104 ± 8.5
CCCCOc1ccc(OCCCN2CCOCC2)cc1 [Pramoxine hydrochloride] |  | 110
CCCCOc1ccc(OCCCN2CCOCC2)cc1 |  | 113
CC1(C)S[C@@H]2[C@H](/N=C/N3CCCCCC3)C(=O)N2[C@H]1C(=O)O |  | 97
O=C(NCC1CCCCN1)c1cc(OCC(F)(F)F)ccc1OCC(F)(F)F (stereo not given) [Flecainide acetate] |  | 132
O=C(NCC1CCCCN1)c1cc(OCC(F)(F)F)ccc1OCC(F)(F)F (stereo not given) [Flecainide] |  | 112
CC1CCc2cc(F)cc3c(=O)c(C(=O)O)cn1c23 (stereo not given) [Flumequine] |  | 100
CC1CCc2cc(F)cc3c(=O)c(C(=O)O)cn1c23 (stereo not given) |  | 108
N[C@H](C(=O)O)[C@H](Cc1ccccc1)C(=O)O [L-Beta-threo-benzyl-aspartate] |  | 114
CC1(C)S[C@@H]2[C@H](N3C(=O)[C@@H](c4ccccc4)NC3(C)C)C(=O)N2[C@H]1C(=O)O |  | 105
CCOC(=O)C1=C(C)NC(C)=C(C(=O)OC)C1c1cccc([N+](=O)[O-])c1 (stereo not given) [Nitrendipine] |  | 100 ± 8.8
CCOC(=O)C1=C(C)NC(C)=C(C(=O)OC)C1c1cccc([N+](=O)[O-])c1 (stereo not given) |  | 97.2 ± 4.1
Cc1nc2c(OCc3ccccc3)cccn2c1CC#N |  | 94.2
CN(C)c1nc(N)c(C(=O)NC(=N)N)nc1Cl [5-(N,N-Dimethyl)amiloride hydrochloride] |  | 106
CCn1cc(C(=O)O)c(=O)c2cc(F)c(N3CCNCC3)cc21 [Norfloxacin] |  | 105 ± 11
CCn1cc(C(=O)O)c(=O)c2cc(F)c(N3CCNCC3)cc21 |  | 105
O=C(c1ccc(OCCN2CCCCC2)cc1)c1c(-c2ccc(O)cc2)sc2cc(O)ccc12 [Raloxifene] |  | 118
O=C(c1ccc(OCCN2CCCCC2)cc1)c1c(-c2ccc(O)cc2)sc2cc(O)ccc12 |  | 104
O=C(c1ccc(OCCN2CCCCC2)cc1)c1c(-c2ccc(O)cc2)sc2cc(O)ccc12 [Raloxifene hydrochloride] |  | 114 ± 12
